Laboratory results from paper PMC10389835.
Results are given in words; binding and its absence hold for the method and conditions named. Binding seen in cells or lysates may run through a third protein. Some binding calls cover weakened binding; strength is not graded here.

The chains behind the UniProt entries cited, without tags or fusion partners.
UniProt Q96KQ7: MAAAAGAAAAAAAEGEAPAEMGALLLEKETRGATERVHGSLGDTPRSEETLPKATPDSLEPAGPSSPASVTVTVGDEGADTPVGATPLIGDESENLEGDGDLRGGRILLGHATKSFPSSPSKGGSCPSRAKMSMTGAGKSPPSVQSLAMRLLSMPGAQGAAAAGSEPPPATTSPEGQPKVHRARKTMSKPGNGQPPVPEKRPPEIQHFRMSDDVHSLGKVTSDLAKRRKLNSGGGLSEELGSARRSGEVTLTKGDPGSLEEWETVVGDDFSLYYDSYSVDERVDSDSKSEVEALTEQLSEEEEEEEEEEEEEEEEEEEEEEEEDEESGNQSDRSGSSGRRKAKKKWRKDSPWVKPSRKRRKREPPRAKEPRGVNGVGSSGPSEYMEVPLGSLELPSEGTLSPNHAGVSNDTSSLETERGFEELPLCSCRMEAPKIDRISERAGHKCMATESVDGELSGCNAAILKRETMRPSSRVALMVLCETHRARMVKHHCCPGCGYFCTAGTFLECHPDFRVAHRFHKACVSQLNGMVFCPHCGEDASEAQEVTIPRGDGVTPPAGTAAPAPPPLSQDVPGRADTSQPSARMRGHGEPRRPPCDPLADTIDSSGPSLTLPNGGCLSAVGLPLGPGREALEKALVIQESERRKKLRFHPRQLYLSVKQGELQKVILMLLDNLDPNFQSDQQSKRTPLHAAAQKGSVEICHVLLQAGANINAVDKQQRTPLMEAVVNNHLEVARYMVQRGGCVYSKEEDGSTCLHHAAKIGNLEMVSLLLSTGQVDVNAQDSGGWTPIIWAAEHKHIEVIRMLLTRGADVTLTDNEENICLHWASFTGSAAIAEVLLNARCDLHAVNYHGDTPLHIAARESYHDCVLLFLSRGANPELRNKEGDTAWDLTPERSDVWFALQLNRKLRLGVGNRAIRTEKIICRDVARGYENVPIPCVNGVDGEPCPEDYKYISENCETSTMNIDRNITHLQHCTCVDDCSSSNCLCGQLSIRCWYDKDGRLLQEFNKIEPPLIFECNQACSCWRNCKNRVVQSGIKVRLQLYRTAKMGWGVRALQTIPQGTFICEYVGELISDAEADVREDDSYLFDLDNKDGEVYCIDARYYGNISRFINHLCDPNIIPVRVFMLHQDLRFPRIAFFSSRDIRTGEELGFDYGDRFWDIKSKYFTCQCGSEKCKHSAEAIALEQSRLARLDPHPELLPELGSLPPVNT

Molecular target: T1, activating transcription factor 7 (ATF7) (human (endogenous in HDF)) (UniProt P17544)
T1 sequence: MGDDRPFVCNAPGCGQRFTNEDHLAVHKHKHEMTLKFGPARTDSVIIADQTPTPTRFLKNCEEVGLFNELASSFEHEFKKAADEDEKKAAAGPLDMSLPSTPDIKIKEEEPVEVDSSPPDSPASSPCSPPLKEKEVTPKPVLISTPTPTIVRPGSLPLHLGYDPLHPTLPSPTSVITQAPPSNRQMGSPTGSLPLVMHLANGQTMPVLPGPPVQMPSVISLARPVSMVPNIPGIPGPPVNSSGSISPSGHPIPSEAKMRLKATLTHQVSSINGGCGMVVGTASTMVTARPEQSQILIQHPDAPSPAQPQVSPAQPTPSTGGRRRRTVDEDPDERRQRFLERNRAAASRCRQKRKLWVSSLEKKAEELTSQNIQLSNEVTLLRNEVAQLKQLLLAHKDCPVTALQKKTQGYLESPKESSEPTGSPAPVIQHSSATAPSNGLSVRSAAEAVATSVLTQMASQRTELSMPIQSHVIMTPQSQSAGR
Experiment: co-IP; HDF cell lysates in IP-lysis buffer (50 mM Tris-HCl, 150 nM NaCl, 1 mM EDTA, 0.2% NP40, 10% glycerol) incubated with anti-ATF7 or control IgG; Protein-A-agarose beads; western blotting with anti-G9a

- binding: binds
Substance: histone H3K9 dimethyltransferase G9a (from UniProt Q96KQ7 1-1210) (enzyme)
